In the supplement of paper PMC5393889:
Some of the results follow.

system: Caenorhabditis elegans N2; test: aldicarb interaction hit call (worm growth perturbed in combination with 10 uM aldicarb in both replicates, no effect as single agent) (binary (1 = interacts)); higher = interacts with aldicarb (growth perturbed); settings: first compound 1.5 µM; aldicarb concentration 10 µM; 6 days; 20 °C

Row | Compound | aldicarb interaction hit call
1 | O=C(Nc1ccc(-c2cccc(F)c2)cc1)C1CCCN(CCCn2cccn2)C1 (stereo not drawn) [wact-323] + CNC(=O)O/N=C/C(C)(C)SC [aldicarb] | inactive: 0
2 | C#CCN1C(=O)S/C(=C/c2cc(C)n(-c3cccc([N+](=O)[O-])c3)c2C)C1=O [wact-207] + CNC(=O)O/N=C/C(C)(C)SC [aldicarb] | inactive: 0
3 | CC(=O)c1cccc(OCc2ccc(Cl)cc2)c1 [wact-223] + CNC(=O)O/N=C/C(C)(C)SC [aldicarb] | inactive: 0
4 | c1ccc2[nH]c(-c3cscn3)nc2c1 [wact-617] + CNC(=O)O/N=C/C(C)(C)SC [aldicarb] | inactive: 0
5 | FC(F)(F)c1cccc(Cc2noc(CN3CCC(c4ccncc4)CC3)n2)c1 [wact-263] + CNC(=O)O/N=C/C(C)(C)SC [aldicarb] | inactive: 0
6 | CCCOc1ccc(S(=O)(=O)N2CCCCC2)cc1C [wact-231] + CNC(=O)O/N=C/C(C)(C)SC [aldicarb] | inactive: 0
7 | CN(CCc1cnn(C)c1)Cc1nc(-c2ccc(C(F)(F)F)cc2)no1 [wact-269] + CNC(=O)O/N=C/C(C)(C)SC [aldicarb] | inactive: 0
8 | Br.Clc1ccc(Nc2nc(-c3ccc(I)cc3)cs2)cc1 [wact-393] + CNC(=O)O/N=C/C(C)(C)SC [aldicarb] | active: 1
9 | S=C(Nc1cccc(Cl)c1)Nc1ccc(Cl)c(Cl)c1 [wact-530] + CNC(=O)O/N=C/C(C)(C)SC [aldicarb] | inactive: 0
10 | O=C(c1csc(-c2ccc(C(F)(F)F)cc2)n1)N1CCC2(CCCN(CC3CC3)C2)C1 (stereo not drawn) [wact-299] + CNC(=O)O/N=C/C(C)(C)SC [aldicarb] | inactive: 0
11 | O=C(Nc1ccc(Cl)c(Cl)c1)NC1CCN(Cc2ccccc2)CC1 [wact-110] + CNC(=O)O/N=C/C(C)(C)SC [aldicarb] | inactive: 0
12 | COC(=O)c1cc(-c2ccc(C)cc2)on1 [wact-578] + CNC(=O)O/N=C/C(C)(C)SC [aldicarb] | inactive: 0
13 | Clc1ccc(-c2cn3ccsc3n2)cc1 [wact-1] + CNC(=O)O/N=C/C(C)(C)SC [aldicarb] | inactive: 0
14 | Cc1ccccc1C(=O)NCCSC1CCCCC1 [wact-494] + CNC(=O)O/N=C/C(C)(C)SC [aldicarb] | inactive: 0
15 | CC(C)Sc1ncnc2c1cnn2-c1ccccc1 [wact-140] + CNC(=O)O/N=C/C(C)(C)SC [aldicarb] | inactive: 0
16 | COc1ccc(NC(=O)N2CCCC(C(=O)c3ccc4ccccc4c3)C2)cc1 (stereo not drawn) [wact-333] + CNC(=O)O/N=C/C(C)(C)SC [aldicarb] | inactive: 0
17 | Cc1ccccc1-c1nc(-c2ccccc2)no1 [wact-131] + CNC(=O)O/N=C/C(C)(C)SC [aldicarb] | inactive: 0
18 | c1ccc(CSc2nnc(-c3ccccc3)o2)cc1 [wact-38] + CNC(=O)O/N=C/C(C)(C)SC [aldicarb] | inactive: 0
19 | CCCc1ccc(-c2nc(-c3cccnc3)no2)cc1 [wact-10] + CNC(=O)O/N=C/C(C)(C)SC [aldicarb] | inactive: 0

Row | Compound | aldicarb interaction hit call
20 | O=C(Nc1ccc(-c2cccc(F)c2)cc1)C1CCCN(Cc2ccccn2)C1 (stereo not drawn) [wact-302] + CNC(=O)O/N=C/C(C)(C)SC [aldicarb] | inactive: 0
21 | S=C(NCC1CCCO1)N1CCN(c2ccc(Cl)c(Cl)c2)CC1 (stereo not drawn) [wact-111] + CNC(=O)O/N=C/C(C)(C)SC [aldicarb] | inactive: 0
22 | O=[N+]([O-])c1ccc(NCc2ccccc2)c([N+](=O)[O-])c1 [wact-212] + CNC(=O)O/N=C/C(C)(C)SC [aldicarb] | inactive: 0
23 | CSc1ccccc1C(=O)NCCSC1CCCCC1 [wact-125] + CNC(=O)O/N=C/C(C)(C)SC [aldicarb] | inactive: 0
24 | CCc1cc(I)ccc1NC(=S)NC(C)=O [wact-538] + CNC(=O)O/N=C/C(C)(C)SC [aldicarb] | inactive: 0
25 | Clc1ccc(N2CCC(NC3COc4ccccc4C3)CC2)cc1 (stereo not drawn) [wact-242] + CNC(=O)O/N=C/C(C)(C)SC [aldicarb] | inactive: 0
26 | CCn1cc(CN2CCCC(C(=O)c3ccc(-c4ccccc4)c(F)c3)C2)cn1 (stereo not drawn) [wact-291] + CNC(=O)O/N=C/C(C)(C)SC [aldicarb] | inactive: 0
27 | O=C(/C=C/Nc1ccccc1I)c1ccccc1 [wact-422] + CNC(=O)O/N=C/C(C)(C)SC [aldicarb] | inactive: 0
28 | COC(=O)CC[C@H](Nc1nncc(-c2ccc3ccccc3c2)n1)C(=O)OC [wact-282] + CNC(=O)O/N=C/C(C)(C)SC [aldicarb] | inactive: 0
29 | Clc1cc(Br)ccc1OCCCCN1CCNCC1.O=C(O)C(=O)O [wact-79] + CNC(=O)O/N=C/C(C)(C)SC [aldicarb] | inactive: 0
30 | Nc1nc(Nc2ccc(Cl)cc2)nc(C(F)(F)F)n1 [wact-161] + CNC(=O)O/N=C/C(C)(C)SC [aldicarb] | inactive: 0
31 | COc1ccc(CNc2ccc(Br)cc2)cc1 [wact-423] + CNC(=O)O/N=C/C(C)(C)SC [aldicarb] | inactive: 0
32 | CC1CN(c2ccc([N+](=O)[O-])cc2)CCN1C(=O)c1ccccc1F (stereo not drawn) [wact-452] + CNC(=O)O/N=C/C(C)(C)SC [aldicarb] | inactive: 0
33 | O=C(Nc1ccc(F)c(F)c1)Nc1ccc(F)c(F)c1 [wact-193] + CNC(=O)O/N=C/C(C)(C)SC [aldicarb] | inactive: 0
34 | C#CCNS(=O)(=O)c1cccc(C(=O)OCc2cc(-c3ccc(Cl)cc3)no2)c1 [wact-349] + CNC(=O)O/N=C/C(C)(C)SC [aldicarb] | inactive: 0
35 | COCC1CCN(Cc2nc(-c3ccc(-c4ccccc4)cc3)oc2C)CC1 [wact-253] + CNC(=O)O/N=C/C(C)(C)SC [aldicarb] | inactive: 0
36 | S=C(NCc1ccc(Cl)cc1)NC1CCN(Cc2ccccc2)CC1 [wact-108] + CNC(=O)O/N=C/C(C)(C)SC [aldicarb] | inactive: 0
37 | C#CC(C)(C)OC(=O)Nc1ccc([N+](=O)[O-])cc1 [wact-211] + CNC(=O)O/N=C/C(C)(C)SC [aldicarb] | inactive: 0
38 | Fc1ccc(-c2noc(-c3cccs3)n2)cc1 [wact-632] + CNC(=O)O/N=C/C(C)(C)SC [aldicarb] | active: 1

Pulled one by one from the entries so far:
Row | Compound | aldicarb interaction hit call
18 | c1ccc(CSc2nnc(-c3ccccc3)o2)cc1 [wact-38] + CNC(=O)O/N=C/C(C)(C)SC [aldicarb] | inactive: 0
17 | Cc1ccccc1-c1nc(-c2ccccc2)no1 [wact-131] + CNC(=O)O/N=C/C(C)(C)SC [aldicarb] | inactive: 0
